The target of this assay is γ-tubulin (dog (endogenous in MDCK)) (UniProt Q9GKK5). Kind of assay: FRET or BRET; immuno-FRET by acceptor photobleaching at the centrosome area of fixed mitotic MDCK cells; primary antibodies with secondary antibodies labelled with Alexa 555 (donor) and Cy5 or Alexa 633 (acceptor), 1 donor : 2 acceptor.

By UniProt entry, the sequences of proteins in these tests, tags left out.
UniProt Q9GKK5: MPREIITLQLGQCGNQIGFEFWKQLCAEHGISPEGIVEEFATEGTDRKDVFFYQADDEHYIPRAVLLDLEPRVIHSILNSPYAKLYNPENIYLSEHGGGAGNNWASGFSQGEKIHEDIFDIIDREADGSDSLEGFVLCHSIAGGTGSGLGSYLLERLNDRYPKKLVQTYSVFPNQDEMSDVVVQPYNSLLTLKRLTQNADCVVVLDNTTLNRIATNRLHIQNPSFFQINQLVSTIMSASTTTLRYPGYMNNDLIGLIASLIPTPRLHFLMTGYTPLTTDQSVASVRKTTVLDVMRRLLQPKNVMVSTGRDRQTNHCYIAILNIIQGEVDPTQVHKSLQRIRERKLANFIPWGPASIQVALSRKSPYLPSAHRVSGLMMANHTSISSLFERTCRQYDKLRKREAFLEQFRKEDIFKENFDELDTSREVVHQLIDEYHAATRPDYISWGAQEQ
UniProt A0A8I3PST2: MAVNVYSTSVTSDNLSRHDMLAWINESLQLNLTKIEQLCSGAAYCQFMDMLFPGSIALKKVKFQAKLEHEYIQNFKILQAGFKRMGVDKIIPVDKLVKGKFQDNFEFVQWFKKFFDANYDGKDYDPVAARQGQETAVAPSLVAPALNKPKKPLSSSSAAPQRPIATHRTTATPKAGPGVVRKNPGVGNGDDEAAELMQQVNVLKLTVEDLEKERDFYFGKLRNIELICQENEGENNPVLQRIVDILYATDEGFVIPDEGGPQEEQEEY

Results are given in words; binding and its absence hold for the method and conditions named. In cells and extracts the contact can be indirect.

The values below come from PMC5668257.

On to EB1 (from UniProt A0A8I3PST2 1-268), for which the binding entry is listed as “no binding”.
